The exact form of at least one protein or probe is not confirmed. Protein sequences can lack the tags named with them.
How the values were obtained:
Experiment in all cases: activity assay
Details in all cases: four spacer 9 (triethylene glycol) groups at 3' end of SEQ 63; unwinding rate relative to native 3' (internal binding); 400 mM NaCl, 1 mM ATP, 1 mM MgCl2, pH 8.0; purified recombinant protein; label: 5' FAM on SEQ 63, 3' BHQ1 on SEQ 62
[1] = test system: T1, Hel308 Csy (Cenarchaeum symbiosum)
T1 sequence: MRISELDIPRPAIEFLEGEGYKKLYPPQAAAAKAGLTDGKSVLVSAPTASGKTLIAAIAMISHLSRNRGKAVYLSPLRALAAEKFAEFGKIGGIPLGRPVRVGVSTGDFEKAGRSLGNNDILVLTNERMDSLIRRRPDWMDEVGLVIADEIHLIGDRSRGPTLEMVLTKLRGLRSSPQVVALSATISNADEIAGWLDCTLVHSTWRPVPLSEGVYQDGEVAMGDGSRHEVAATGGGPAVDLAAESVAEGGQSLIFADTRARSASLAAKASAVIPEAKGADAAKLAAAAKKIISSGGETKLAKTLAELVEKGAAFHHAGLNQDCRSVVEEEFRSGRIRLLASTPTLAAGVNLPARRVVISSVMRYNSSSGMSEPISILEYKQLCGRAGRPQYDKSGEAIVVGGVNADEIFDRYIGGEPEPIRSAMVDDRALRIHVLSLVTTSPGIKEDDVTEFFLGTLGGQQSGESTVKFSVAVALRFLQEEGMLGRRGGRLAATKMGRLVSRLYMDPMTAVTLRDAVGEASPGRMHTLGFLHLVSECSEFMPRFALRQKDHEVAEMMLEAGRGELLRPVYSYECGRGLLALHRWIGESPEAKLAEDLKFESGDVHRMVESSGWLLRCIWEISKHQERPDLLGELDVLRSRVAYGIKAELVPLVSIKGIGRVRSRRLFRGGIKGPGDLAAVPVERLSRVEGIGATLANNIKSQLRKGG

[2] = test system: T2, Hel308 Mhu (Methanospirillum hungatei)
T2 sequence: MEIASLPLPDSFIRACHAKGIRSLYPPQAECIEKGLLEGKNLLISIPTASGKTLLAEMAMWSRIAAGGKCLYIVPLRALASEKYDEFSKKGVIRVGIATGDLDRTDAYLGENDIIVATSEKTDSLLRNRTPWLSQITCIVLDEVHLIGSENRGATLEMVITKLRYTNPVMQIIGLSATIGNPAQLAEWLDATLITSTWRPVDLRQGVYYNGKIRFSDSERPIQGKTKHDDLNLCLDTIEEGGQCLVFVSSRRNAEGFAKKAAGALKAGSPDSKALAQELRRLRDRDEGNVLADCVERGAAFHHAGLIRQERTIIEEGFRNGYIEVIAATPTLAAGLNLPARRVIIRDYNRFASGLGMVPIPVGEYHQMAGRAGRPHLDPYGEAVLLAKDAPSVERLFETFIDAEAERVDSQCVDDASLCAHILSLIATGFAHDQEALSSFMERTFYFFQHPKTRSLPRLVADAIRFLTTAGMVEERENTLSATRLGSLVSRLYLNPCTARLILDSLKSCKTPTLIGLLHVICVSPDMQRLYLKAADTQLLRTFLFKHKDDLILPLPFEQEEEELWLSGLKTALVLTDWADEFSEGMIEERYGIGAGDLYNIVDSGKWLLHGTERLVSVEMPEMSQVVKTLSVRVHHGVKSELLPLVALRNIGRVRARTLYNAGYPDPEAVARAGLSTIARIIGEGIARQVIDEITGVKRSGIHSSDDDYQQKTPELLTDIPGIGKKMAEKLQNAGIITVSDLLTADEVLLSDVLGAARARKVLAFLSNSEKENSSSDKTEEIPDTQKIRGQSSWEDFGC

[3] = test system: T3, Hel308 Min (Methanocaldococcus infernus)
T3 sequence: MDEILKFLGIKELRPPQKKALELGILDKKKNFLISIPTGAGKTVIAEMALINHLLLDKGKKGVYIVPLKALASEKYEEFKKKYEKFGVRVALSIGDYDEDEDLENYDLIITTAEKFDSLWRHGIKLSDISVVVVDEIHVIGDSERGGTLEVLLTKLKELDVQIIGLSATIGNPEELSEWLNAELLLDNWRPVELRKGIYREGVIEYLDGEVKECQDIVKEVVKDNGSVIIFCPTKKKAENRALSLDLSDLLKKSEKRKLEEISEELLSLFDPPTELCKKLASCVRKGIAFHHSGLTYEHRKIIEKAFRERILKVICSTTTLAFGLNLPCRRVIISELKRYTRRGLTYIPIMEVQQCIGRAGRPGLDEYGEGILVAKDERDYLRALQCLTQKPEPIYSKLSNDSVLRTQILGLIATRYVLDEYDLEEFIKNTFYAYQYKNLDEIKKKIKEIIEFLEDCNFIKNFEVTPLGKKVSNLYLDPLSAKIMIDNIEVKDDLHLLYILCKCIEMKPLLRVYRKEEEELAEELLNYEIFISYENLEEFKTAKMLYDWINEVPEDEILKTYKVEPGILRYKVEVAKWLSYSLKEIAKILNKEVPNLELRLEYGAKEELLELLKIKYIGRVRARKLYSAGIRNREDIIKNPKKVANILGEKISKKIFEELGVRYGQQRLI

[4] = test system: T4, Hel308 Mma (Methanococcus maripaludis)
T4 sequence: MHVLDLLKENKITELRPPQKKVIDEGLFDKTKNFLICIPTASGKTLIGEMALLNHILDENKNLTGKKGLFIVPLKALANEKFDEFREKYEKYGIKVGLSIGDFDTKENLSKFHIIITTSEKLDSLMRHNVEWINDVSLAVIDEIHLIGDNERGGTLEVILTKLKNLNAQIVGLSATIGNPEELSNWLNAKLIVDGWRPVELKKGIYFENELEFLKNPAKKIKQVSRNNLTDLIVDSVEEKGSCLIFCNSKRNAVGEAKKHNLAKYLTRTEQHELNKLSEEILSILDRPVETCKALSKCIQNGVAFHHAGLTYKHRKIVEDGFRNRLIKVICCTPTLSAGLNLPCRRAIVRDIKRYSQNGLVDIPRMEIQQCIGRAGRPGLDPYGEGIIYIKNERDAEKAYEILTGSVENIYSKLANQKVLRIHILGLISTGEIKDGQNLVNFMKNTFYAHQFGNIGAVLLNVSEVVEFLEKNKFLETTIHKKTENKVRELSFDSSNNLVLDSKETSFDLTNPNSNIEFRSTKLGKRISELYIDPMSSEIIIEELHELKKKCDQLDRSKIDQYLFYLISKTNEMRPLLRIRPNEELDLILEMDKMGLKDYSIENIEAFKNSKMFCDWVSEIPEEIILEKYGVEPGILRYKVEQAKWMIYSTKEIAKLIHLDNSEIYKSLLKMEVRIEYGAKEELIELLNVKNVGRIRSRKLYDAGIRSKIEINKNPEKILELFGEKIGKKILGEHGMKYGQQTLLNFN

[5] = test system: T5, Hel308 Tga (Thermococcus gammatolerans)
T5 sequence: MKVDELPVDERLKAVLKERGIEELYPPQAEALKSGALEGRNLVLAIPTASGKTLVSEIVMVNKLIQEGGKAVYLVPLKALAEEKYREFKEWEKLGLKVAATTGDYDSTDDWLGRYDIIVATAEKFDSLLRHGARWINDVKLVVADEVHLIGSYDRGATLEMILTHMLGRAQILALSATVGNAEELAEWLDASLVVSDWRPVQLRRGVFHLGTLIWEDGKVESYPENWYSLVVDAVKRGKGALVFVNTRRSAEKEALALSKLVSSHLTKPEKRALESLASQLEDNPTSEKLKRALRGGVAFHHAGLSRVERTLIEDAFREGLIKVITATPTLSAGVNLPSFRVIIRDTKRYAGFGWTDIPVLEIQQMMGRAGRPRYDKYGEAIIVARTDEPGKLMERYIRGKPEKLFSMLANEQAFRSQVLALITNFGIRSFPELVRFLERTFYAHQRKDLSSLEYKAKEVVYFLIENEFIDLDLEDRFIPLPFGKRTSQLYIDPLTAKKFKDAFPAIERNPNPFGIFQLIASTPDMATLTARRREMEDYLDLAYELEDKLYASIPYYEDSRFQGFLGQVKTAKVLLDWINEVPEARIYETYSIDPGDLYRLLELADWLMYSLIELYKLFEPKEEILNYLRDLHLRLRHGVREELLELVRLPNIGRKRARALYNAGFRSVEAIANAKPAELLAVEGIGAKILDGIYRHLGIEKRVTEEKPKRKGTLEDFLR

Measured: activity on this sequence

CTATTCTGTTTATGTTTCTTGTTTGTTAGCCCTATTCTGTCCCCCCCCCCACCCCCCCCC / ACAGAATAGGGCTAACAAACAAGAAACATAAACAGAATAG [3'-spacer 9 overhang substrate (Example 4)]
> 20%: all assays above
